Results published in PMC1435744.
No constants are given. Whether binding was seen depends on the method and setting. Binding seen in cells or lysates may run through a third protein. A result given as binding can be weak or reduced; the word gives no strength. Where a sequence is shown, tags or fusion partners need not be part of it.

Biological target: Flag-tagged C-terminus portion of mr-s containing the SAM domain (mouse) (UniProt Q1RNF8)
Assay: co-IP; HEK293T co-transfected with HA- and Flag-tagged constructs; 1 mg lysate precipitated with anti-Flag antibody and protein G-Sepharose, 4°C, 2 hrs, 150 mM NaCl, 1% Nonidet P-40; detected by anti-HA blot

binding	Binder
binds	full-length mr-s, HA-tagged or Flag-tagged, expressed in HEK293T cells (protein, UniProt Q1RNF8 1-542) MPEHPRHCDFQRGNVEIGLGPGGDLLGKRLSCPCITSHCSSEKKARSKDPQATSLLPELESTMAPEDHYHQLMSALSEASSFEETQRLYHLGIPSHDLLRVRQEVATATLRGPSGLEVHLPSSTADHRRKQGLVQRREGAVPAAATSFSEREMSQPPPLLSPQNAAHITMSSHLRPPFLGMPTAVCQTPGFSFLPSAQAEMLARQQELLRKQSLARLEMSELLRQKELGSVHRPLLPAPEVALHIPEGPDELQRRGSMLVLKHSSAPLLALPPQGPPGPGPPIPPKESARSRSEKGSLGVQPSQPKETTGAGLWAQEVSEEPSKDSDGEDPETAAAREGTSTPSQVPAGGTRAEGRGLLSGSTLPPPLPLGFPCGAVSPYFHTGTMGGLFTDEETTTLEDVNKWTVDDVCNFVGGLSGCGEYARVFGEQGIDGETLPLLTEEHLLNTMGLKLGPALKIRAQVAKRLGRVFYMASFPVALPLQPPSLQAPELSPGHQPLSPATTTSPYEGTHLPTGQASPKQENGSGTIALLSGAPDPSQLLQ
no binding	mr-s ΔSAM (amino acids 1 to 400), HA-tagged or Flag-tagged, expressed in HEK293T cells (domain or fragment, UniProt Q1RNF8 1-400) MPEHPRHCDFQRGNVEIGLGPGGDLLGKRLSCPCITSHCSSEKKARSKDPQATSLLPELESTMAPEDHYHQLMSALSEASSFEETQRLYHLGIPSHDLLRVRQEVATATLRGPSGLEVHLPSSTADHRRKQGLVQRREGAVPAAATSFSEREMSQPPPLLSPQNAAHITMSSHLRPPFLGMPTAVCQTPGFSFLPSAQAEMLARQQELLRKQSLARLEMSELLRQKELGSVHRPLLPAPEVALHIPEGPDELQRRGSMLVLKHSSAPLLALPPQGPPGPGPPIPPKESARSRSEKGSLGVQPSQPKETTGAGLWAQEVSEEPSKDSDGEDPETAAAREGTSTPSQVPAGGTRAEGRGLLSGSTLPPPLPLGFPCGAVSPYFHTGTMGGLFTDEETTTLED
